The values that follow come from the supplement of paper PMC7666118.

Amino acid sequences for entries named in this document (tags omitted). A change or cut given only in a name is not applied to a line headed by its entry.
UniProt Q6UW68: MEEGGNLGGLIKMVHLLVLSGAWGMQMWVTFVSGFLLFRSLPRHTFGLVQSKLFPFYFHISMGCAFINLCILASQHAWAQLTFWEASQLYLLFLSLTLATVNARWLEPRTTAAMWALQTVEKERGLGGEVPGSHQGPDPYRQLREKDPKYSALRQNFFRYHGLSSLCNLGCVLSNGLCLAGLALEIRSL
UniProt Q5U3C3: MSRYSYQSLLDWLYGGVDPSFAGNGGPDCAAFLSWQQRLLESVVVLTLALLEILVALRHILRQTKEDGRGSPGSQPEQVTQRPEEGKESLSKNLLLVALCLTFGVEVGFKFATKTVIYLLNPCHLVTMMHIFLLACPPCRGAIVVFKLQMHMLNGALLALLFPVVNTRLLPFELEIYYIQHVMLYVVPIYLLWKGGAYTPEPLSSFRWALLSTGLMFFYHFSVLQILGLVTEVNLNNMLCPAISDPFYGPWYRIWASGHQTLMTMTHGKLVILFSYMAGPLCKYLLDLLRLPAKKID
UniProt Q86WV6: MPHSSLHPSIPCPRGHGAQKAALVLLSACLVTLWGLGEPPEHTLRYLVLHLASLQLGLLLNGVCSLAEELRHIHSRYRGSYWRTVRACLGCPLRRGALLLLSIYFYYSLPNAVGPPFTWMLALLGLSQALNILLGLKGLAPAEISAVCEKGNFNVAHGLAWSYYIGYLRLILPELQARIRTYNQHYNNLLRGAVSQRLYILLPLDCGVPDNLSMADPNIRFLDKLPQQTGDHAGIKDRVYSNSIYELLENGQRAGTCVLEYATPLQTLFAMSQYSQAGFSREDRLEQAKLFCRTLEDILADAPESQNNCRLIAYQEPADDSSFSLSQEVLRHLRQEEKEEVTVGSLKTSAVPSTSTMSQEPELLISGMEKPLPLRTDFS
UniProt Q8NHU6: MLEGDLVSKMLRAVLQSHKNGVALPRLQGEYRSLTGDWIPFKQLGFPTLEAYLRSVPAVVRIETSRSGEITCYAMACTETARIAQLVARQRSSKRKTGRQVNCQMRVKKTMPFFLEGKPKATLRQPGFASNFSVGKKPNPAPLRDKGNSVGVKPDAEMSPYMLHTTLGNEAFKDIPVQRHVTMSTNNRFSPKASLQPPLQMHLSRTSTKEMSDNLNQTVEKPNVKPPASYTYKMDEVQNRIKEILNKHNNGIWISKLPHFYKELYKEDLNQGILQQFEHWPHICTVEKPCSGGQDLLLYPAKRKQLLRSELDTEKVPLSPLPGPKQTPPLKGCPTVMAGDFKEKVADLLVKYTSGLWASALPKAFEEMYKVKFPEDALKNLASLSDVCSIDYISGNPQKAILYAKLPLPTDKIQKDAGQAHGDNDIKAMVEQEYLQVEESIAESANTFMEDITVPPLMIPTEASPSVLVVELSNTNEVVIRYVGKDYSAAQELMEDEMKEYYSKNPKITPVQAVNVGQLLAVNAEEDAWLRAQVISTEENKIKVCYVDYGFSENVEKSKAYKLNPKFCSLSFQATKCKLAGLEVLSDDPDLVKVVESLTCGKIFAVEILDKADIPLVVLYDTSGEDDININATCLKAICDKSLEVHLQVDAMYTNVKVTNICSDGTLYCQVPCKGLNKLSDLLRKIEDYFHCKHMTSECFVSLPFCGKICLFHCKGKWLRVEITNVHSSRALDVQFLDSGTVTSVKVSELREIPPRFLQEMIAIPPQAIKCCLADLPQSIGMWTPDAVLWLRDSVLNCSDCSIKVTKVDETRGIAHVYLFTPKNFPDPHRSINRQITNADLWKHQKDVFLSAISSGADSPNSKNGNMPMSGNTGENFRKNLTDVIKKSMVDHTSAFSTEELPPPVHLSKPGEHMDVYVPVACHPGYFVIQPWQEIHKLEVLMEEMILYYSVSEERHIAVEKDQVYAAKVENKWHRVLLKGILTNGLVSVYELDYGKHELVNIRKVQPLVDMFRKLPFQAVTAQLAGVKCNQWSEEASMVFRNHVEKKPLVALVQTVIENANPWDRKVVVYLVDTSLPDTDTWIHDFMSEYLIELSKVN
UniProt Q71RG4: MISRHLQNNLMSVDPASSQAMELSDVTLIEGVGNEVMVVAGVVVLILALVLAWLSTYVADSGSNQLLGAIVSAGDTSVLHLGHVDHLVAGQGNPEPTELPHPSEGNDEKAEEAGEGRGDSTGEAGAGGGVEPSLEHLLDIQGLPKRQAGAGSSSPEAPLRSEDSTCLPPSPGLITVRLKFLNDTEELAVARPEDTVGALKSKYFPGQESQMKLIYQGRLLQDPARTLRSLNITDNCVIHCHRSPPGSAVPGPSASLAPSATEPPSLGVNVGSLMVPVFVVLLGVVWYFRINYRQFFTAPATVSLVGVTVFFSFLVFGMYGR
UniProt Q96B77: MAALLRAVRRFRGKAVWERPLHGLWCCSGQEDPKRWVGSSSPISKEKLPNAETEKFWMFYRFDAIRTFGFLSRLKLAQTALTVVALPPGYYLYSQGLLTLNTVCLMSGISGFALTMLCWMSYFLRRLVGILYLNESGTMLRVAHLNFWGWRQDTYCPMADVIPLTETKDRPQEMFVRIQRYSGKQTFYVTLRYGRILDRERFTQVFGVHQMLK
UniProt P60174, whole entry: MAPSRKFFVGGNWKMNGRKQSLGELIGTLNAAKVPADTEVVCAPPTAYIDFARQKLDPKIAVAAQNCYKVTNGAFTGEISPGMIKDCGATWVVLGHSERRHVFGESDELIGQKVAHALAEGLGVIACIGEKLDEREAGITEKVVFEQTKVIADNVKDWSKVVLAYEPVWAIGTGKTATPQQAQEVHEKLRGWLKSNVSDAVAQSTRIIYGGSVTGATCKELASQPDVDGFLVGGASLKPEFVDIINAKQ
UniProt Q5QJ74: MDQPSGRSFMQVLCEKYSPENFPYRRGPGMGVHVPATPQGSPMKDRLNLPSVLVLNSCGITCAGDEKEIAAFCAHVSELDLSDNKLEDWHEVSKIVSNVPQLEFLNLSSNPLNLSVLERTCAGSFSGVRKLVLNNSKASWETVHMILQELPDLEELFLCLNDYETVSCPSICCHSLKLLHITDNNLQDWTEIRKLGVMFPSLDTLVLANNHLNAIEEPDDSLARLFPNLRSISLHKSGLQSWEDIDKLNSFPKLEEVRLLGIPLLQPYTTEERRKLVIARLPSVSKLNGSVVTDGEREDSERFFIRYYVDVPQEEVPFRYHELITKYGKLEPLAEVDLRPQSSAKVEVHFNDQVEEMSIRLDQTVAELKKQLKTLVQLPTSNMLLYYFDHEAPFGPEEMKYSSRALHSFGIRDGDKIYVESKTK
UniProt Q9Y6I9: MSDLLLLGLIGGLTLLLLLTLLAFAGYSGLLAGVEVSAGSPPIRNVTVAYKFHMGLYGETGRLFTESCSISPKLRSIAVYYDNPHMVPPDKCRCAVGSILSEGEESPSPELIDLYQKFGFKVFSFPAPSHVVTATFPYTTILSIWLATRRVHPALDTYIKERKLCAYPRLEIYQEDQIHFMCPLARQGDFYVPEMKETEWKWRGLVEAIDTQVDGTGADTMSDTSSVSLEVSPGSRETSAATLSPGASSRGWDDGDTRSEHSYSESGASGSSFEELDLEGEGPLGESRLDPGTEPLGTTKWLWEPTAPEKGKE
UniProt Q9Y4R8, whole entry: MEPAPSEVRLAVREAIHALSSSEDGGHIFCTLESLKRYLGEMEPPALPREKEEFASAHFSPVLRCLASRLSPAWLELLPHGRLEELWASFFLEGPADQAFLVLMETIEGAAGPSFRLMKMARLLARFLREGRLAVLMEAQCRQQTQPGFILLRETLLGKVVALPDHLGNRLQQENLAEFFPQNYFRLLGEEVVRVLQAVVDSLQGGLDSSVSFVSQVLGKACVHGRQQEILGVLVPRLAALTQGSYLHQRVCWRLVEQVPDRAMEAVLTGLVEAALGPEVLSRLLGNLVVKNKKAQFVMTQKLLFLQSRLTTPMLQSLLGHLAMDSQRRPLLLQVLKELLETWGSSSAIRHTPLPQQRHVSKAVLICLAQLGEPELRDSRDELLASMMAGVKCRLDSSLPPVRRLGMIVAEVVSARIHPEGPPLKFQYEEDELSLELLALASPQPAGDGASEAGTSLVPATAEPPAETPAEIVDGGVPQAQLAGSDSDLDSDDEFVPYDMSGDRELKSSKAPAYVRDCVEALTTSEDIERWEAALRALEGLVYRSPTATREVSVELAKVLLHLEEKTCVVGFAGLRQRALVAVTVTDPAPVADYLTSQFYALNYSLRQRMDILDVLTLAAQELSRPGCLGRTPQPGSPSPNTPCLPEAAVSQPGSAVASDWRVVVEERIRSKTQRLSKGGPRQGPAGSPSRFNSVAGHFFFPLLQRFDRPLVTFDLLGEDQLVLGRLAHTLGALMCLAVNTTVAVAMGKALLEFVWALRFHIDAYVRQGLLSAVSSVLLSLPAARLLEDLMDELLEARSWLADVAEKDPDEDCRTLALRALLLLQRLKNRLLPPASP
UniProt O14763, whole entry: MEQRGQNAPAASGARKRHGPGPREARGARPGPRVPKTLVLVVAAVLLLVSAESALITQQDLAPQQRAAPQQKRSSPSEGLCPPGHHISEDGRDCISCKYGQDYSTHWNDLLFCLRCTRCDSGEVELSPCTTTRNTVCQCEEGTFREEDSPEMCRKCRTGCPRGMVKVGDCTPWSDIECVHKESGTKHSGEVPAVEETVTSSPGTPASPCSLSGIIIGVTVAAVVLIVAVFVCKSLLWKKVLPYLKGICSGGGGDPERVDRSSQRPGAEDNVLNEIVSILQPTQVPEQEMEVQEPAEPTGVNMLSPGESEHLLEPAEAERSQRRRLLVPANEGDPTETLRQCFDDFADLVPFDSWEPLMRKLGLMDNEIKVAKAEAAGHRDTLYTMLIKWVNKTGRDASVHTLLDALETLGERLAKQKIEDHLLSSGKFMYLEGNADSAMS
UniProt Q9Y2W1: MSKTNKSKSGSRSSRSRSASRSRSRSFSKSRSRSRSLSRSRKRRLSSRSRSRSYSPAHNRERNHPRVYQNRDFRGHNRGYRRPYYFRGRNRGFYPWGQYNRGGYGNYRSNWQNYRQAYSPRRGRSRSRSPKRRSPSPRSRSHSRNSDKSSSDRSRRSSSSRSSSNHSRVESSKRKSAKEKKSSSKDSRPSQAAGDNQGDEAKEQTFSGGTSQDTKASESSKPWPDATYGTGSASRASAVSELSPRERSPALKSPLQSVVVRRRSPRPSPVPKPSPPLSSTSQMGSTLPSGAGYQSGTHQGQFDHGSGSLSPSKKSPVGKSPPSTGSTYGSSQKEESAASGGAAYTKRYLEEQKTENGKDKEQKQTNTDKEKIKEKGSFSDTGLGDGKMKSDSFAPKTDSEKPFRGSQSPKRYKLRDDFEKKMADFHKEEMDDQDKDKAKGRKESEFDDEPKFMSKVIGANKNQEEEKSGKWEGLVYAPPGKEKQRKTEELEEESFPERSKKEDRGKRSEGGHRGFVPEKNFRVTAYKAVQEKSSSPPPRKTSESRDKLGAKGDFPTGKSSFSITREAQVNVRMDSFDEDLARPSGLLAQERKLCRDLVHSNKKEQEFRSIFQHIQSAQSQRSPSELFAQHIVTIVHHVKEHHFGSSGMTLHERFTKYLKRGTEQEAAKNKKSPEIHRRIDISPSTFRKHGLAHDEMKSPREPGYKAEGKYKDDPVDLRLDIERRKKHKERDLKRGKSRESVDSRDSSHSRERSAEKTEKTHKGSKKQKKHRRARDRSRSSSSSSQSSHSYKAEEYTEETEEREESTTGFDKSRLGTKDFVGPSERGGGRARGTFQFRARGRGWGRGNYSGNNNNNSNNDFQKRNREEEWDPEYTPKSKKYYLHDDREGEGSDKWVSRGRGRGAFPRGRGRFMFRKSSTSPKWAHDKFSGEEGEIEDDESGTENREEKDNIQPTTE
UniProt Q86T03: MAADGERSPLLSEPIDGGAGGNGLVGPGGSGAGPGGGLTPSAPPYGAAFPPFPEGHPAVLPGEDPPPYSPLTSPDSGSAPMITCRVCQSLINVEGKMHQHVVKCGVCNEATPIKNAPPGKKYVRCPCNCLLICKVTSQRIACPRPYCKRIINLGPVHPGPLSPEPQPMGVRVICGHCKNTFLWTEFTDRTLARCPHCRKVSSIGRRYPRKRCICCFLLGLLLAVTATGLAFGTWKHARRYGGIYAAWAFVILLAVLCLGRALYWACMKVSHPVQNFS
UniProt Q969M1: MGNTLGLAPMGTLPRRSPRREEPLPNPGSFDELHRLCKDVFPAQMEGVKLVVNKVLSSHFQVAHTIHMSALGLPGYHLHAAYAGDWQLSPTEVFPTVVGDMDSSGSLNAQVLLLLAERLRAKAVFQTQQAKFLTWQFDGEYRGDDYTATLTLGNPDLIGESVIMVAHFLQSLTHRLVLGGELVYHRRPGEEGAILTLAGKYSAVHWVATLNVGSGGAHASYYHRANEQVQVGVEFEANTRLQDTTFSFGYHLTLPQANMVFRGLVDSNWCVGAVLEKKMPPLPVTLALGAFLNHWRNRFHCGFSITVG
UniProt Q9BVK8: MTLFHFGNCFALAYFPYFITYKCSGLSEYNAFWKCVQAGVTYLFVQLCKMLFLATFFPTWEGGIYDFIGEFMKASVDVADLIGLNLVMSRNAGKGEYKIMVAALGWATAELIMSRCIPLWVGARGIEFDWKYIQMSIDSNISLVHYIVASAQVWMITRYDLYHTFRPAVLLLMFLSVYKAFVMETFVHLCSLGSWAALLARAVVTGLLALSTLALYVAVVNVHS

Some of the results follow.

Compound in this test: COc1ccc(Cn2ccc3ccc(C(=O)NO)cc32)cc1
As to the kind of experiment: dose-dependent thermal stabilisation call (2D-TPP, DLPTP, 10% FDR) (binary (1 = stabilised)); higher = stabilised by the compound. As to conditions: system: HL-60 intact cells; concentration range 0.04-10 µM.
On to TMEM205 (UniProt Q6UW68), for which the “dose-dependent thermal stabilisation call” value was inactive: 0.
The figure for TMEM164 (UniProt Q5U3C3) is inactive: 0; for TIFA (UniProt Q96CG3) it is inactive: 0; for TOX4 (UniProt O94842) it is inactive: 0.
The figure for TMEM173 (UniProt Q86WV6) is inactive: 0; for TDRD7 (UniProt Q8NHU6) it is inactive: 0; for TMUB2 (UniProt Q71RG4) it is inactive: 0.
The figure for TGS1 (UniProt Q96RS0) is inactive: 0; for TMEM186 (UniProt Q96B77) it is inactive: 0.
Turning to TMC8 (UniProt Q8IU68), the “dose-dependent thermal stabilisation call” value is inactive: 0.
The figure for TMCO7 (UniProt Q9C0B7) is inactive: 0; for TAPBP (UniProt O15533) it is inactive: 0.
For TPI1 (UniProt P60174) the value was inactive: 0.
Take THUMPD3 (UniProt Q9BV44): the “dose-dependent thermal stabilisation call” value was inactive: 0.
The figure for TAX1BP1 (UniProt Q86VP1) is inactive: 0; for TBCEL (UniProt Q5QJ74) it is inactive: 0.
On to TLN2 (UniProt Q9Y4G6), for which the “dose-dependent thermal stabilisation call” value was inactive: 0.
As to TEX264 (UniProt Q9Y6I9), the “dose-dependent thermal stabilisation call” value was active: 1.
As to TELO2 (UniProt Q9Y4R8), the “dose-dependent thermal stabilisation call” value is inactive: 0.
For TNFRSF10B (UniProt O14763) the value was inactive: 0; for TBC1D20 (UniProt Q96BZ9), inactive: 0; for THRAP3 (UniProt Q9Y2W1), inactive: 0.
Consider TMEM55B (UniProt Q86T03), for which the “dose-dependent thermal stabilisation call” value was inactive: 0.
Regarding TOMM40L (UniProt Q969M1), the “dose-dependent thermal stabilisation call” value was inactive: 0.
For TMED3 (UniProt Q9Y3Q3) the value was inactive: 0; for TLK2 (UniProt Q86UE8), inactive: 0.
For TMEM147 (UniProt Q9BVK8) the value was inactive: 0.
